Test results from patent US20070196865A1 (priority 2003, published 2007).

Experiments:
[1] = tested on: α1bAR, β2AR, AT1AR, DOR, and V2R; assay: Multiplex Receptor Assay With Five GPCRs (pooled cell lines, arrestin-GFP Fgrains); type: cell-based, human; details: pool of five U2OS cell lines expressing α1bAR
Method: (§1) The assays were carried out using various “double stable” human osteosarcoma cell (U2OS) lines. Each cell line stably expressed an arrestin-GFP conjugate of the Renilla reniformis green fluorescent protein fused in frame to the carboxyl terminus of rat β-arrestin2 as well as one of the following GPCRs: α1b adrenergic receptor (α1bAR), beta2-AR […], delta opioid (DOR) receptor, angiotensin1A receptor (AT1AR), or V2 vasopressin receptor (V2R).
(§2) Cells were plated 16-24 hours prior to the experiment at approximately 6,000 cells per well. Cells were removed from the flasks with trypsin and suspended in growth media for plating at a density of 100,000 cells per ml.
(§3) One of two methods were used to multiplex the cell lines. In one method, each cell line was dispensed independently such that the final cell number was approximately 6,000 cells per well. The dispense volume was adjusted depending on the number of cell lines used. […]
(§4) Plates were imaged for response determination on an In Cell Analyzer 3000, Gen. […] Pit or vesicle responses were quantitated using the Granularity Module of the Raven Software. That is, the In Cell Analyzer 3000 was used to quantitate the localization of the arrestin-GFP conjugate for the cells in each well. […] The average of the fluorescent intensity of the identified grains per cell in an acquired image (i.e., Fgrains) was determined for each well on the plates. […]

[2] = tested on: α1bAR, β2AR, AT1AR, and DOR; details: pool of four U2OS cell lines expressing α1bAR
Method: as §1, §2, §3, §4

Compound: NC[C@H](O)c1ccc(O)c(O)c1 [NE, norepinephrine]
- slope of the concentration-response curve [1]: 2.2
- slope of the concentration-response curve [2]: 1.2
